Our source for the binding values is paper PMC5461540, “MOB1 Mediated Phospho-recognition in the Core Mammalian Hippo Pathway” (Molecular & Cellular Proteomics : MCP, 2017).

This assay concerns the target T1, GST-MOB4 wild-type (human) (UniProt Q9Y3A3).
T1 sequence: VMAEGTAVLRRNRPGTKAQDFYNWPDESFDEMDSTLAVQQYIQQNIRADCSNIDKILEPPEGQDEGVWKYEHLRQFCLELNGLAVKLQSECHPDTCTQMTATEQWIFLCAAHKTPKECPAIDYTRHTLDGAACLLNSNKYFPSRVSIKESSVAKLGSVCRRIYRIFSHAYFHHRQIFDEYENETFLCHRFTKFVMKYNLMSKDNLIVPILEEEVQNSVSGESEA
Kind of assay: affinity purification with mass spectrometry; GST-MOB4 WT or RRR→AAA on glutathione beads, 2 mg lysate of okadaic acid-treated HeLa cells, 2 h at 4 °C; SAINTexpress scoring against glutathione resin alone; only the target purified.

Results are given in words; binding and its absence hold for the method and conditions named. Binding seen in cells or lysates may run through a third protein. Here binding means that the protein was enriched with, or labelled near, the bait; the list need not be complete. Where a sequence is shown, tags or fusion partners need not be part of it.

Turning to “MST1 (endogenous, HeLa) (from UniProt Q13043-1 1-487)”, the binding entry is “binds”.
